We go through one molecule from US20110002995A1, “PHARMACEUTICAL COMPOSITION FOR THE TREATMENT AND PREVENTION OF CARDIAC DISEASE” (MAZENCE INC., priority 2007, published 2011).

For the series, the system named is TAC-induced heart hypertrophy. The series can be described thus: Inhibitory effect on heart hypertrophy, TAC model (Experimental Example 1). The format is in vivo, C57BL/6J male mice. To be noted: SHAM MB(+), 30 mg/kg. As to the method: 8-week-old C57BL/6J male mice (n=40, 20-23 g, SLC, Japan) were purchased and subjected to transverse aortic constriction (TAC).
The thorax was incised and the thymus was removed.
5 weeks after the operation of TAC for the heart failure model, a difference of a fractional shortening (F.S) value (%) with the control group was confirmed using echocardiogram, and the degree of heart failure induction and therapeutic effects were then determined.
Further, left ventricular end-diastolic and systolic diameters were measured according to the standard method of the American Society for Echocardiography. Fractional shortening (%) which is an indicator of the ventricular contractility is calculated according to the following equation.
F.S=(left ventricular end-diastolic diameter)−(left ventricular end-systolic diameter)/left ventricular end-diastolic diameter
Among compounds of Formula 1, inhibitory effects of 7,8-dihydro-2,2-dimethyl-2H-naphtho(2,3-b)dihydropyran-7,8-dione (hereinafter, referred to as “MB660”) on heart hypertrophy and heart failure were examined.
2 days after TAC treatment, animals were given test samples. Induction of heart hypertrophy was carried out over 2 weeks after TAC treatment. Induction of heart failure was carried out over 5 weeks after TAC treatment.

As for `CC1(C)CCc2cc3c(cc2O1)=CC(=O)C(=O)C=3` [MB660, 7,8-dihydro-2,2-dimethyl-2H-naphtho(2,3-b)dihydropyran-7,8-dione], where the note is “FIG. 1”, the “HW/BW ratio, normal control group (SHAM), treated vs non-treated” value was “no significant difference”. In addition, the “HW/TL ratio, normal control group (SHAM), treated vs non-treated” value (FIG. 2) is given as “no significant difference”.
